Results from doi:10.1101/2021.05.19.444448.
Like-named read-outs stand apart in the source and are kept apart here. Results are given in words; binding and its absence hold for the method and conditions named. Binding seen in cells or lysates may run through a third protein. Some binding calls cover weakened binding; strength is not graded here.

Chains of the proteins cited; added tags and fusions are not shown.
UniProt P11142: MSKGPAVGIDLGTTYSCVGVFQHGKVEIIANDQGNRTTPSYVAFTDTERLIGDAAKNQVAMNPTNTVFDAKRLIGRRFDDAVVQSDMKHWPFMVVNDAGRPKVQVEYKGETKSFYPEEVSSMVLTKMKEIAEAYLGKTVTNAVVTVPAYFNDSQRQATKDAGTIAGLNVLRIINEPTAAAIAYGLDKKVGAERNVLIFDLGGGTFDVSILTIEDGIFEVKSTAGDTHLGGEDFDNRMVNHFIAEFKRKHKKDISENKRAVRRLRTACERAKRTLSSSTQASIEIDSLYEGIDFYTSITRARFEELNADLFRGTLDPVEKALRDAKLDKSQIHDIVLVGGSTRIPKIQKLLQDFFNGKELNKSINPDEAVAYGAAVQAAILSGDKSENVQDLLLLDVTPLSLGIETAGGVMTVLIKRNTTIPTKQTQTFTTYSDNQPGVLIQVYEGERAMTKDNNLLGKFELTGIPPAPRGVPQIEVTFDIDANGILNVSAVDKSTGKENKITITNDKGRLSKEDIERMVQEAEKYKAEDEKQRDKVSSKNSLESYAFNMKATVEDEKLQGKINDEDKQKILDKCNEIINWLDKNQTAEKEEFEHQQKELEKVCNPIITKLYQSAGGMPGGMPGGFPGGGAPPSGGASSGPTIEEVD

Assays:
[1] = target: T1, PGBD1 (endogenous, SHEP cells) (human (endogenous in SHEP)) (UniProt Q96JS3); experiment: co-IP
T1 sequence: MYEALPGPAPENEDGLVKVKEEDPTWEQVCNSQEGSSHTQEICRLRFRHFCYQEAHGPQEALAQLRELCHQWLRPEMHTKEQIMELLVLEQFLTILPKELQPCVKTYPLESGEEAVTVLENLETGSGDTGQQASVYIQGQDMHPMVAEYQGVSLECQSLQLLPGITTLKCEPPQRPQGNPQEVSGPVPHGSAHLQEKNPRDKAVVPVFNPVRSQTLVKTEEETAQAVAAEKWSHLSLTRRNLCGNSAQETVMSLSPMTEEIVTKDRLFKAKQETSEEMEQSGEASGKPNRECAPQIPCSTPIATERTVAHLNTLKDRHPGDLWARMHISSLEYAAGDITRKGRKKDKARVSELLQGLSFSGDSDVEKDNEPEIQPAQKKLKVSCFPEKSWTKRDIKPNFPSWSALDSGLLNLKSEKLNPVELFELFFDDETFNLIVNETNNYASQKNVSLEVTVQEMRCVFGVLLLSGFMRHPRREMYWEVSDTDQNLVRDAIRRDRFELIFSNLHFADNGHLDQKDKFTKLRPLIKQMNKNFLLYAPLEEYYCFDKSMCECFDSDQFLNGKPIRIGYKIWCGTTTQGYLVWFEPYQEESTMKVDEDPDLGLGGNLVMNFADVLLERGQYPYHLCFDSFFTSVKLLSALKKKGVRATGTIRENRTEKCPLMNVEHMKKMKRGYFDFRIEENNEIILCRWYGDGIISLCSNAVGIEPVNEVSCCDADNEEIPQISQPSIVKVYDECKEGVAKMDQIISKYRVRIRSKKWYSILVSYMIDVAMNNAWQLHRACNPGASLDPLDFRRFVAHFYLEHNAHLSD

[2] = target: T1, PGBD1 (endogenous, SHEP cells) (human (endogenous in SHEP)); experiment: co-IP; remark: listed apart in the source

Q: For “HSPA8/HSC70, endogenous in SHEP (from UniProt P11142 1-646)”, which binding [1] is on record?
A: binds

B1: thioredoxin (TXN), in SHEP (protein, UniProt P10599 1-105)
chain: MVKQIESKTAFQEALDAAGDKLVVVDFSATWCGPCKMIKPFFHSLSEKYSNVIFLEVDVDDCQDVASECEVKCMPTFQFFKKGQKVGEFSGANKEKLEATINELV
Q: B1 was tested. Which binding [2] did it give?
A: binds
